PubChem BioAssay AID1159598, NIAID – 2016
The deposit covers 756 reagents; this is a random part of them. Over the whole deposit, 142 (19%) got an active call. 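Active includes both higher and lower reporter signal; each gene has six separate siRNAs, and no gene-level summary is deposited.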 Entries without a mark were called inactive. The numbers tell different reagents against one gene apart. The record does not give: the amount of reagent.

- Aim: 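Knock-downs that alter flagellin-driven TNF reporter signal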
- Cell system: human THP-1 B5 reporter cells made macrophage-like with PMA
- Knock-down reagent: single siRNA against human genes
- Time to read-out: reporter read 48 to 72 hours after siRNA transfection
- Challenge: flagellin stimulation for 4 hours, dose not given
- Measured: 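TNF promoter firefly luciferase over renilla after 4 h flagellin, plate median/MAD scaled, robust z versus negative controls, mean of replicates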
- Reading the numbers: TNF reporter z-score: higher = stronger TNF promoter activity than controls
- Active means: 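Active means the mean reporter z is about 1.5 or more, or about -1.5 or less; values closer to zero are inactive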
- Calls: active = reporter shifted beyond 1.5 z, up or down; inactive = reporter within 1.5 z of controls

What did the screen give for PIK3CG #1?
TNF reporter z-score: -3.36 (active)

For PIK3CG #2, what was measured?
TNF reporter z-score: -0.209

For PIK3CG #3, what does the deposit list?
TNF reporter z-score: -1.34

What did the screen give for PIK3CG #4?
TNF reporter z-score: -2.26 (active)

What did the screen give for PIK3CG #5?
TNF reporter z-score: -0.203

For PIK3CG #6, what was measured?
TNF reporter z-score: -1.18

With IL6 #1, what does the deposit list?
TNF reporter z-score: 0.651

What did the screen give for IL6 #2?
TNF reporter z-score: -1.1

How did the screen score IL6 #3?
TNF reporter z-score: -1.82 (active)

With IL6 #4, what was measured?
TNF reporter z-score: 0.0203

With IL6 #5, how do the results read?
TNF reporter z-score: -0.329

Which result is listed for IL6 #6?
TNF reporter z-score: -0.718

For MAPK14 #1, what does the deposit list?
TNF reporter z-score: -1.53 (active)

How did the screen score MAPK14 #2?
TNF reporter z-score: -1.28

What is on record for MAPK14 #3?
TNF reporter z-score: -1.18

With MAPK14 #4, what was measured?
TNF reporter z-score: -1.86 (active)

How did the screen score MAPK14 #5?
TNF reporter z-score: -0.74

Which result is listed for MAPK14 #6?
TNF reporter z-score: -1.24

For MAP2K6 #1, what does the deposit list?
TNF reporter z-score: 0.0256

How did the screen score MAP2K6 #2?
TNF reporter z-score: -0.81

How did the screen score MAP2K6 #3?
TNF reporter z-score: -0.0299

With MAP2K6 #4, what was measured?
TNF reporter z-score: -0.326

For MAP2K6 #5, what was measured?
TNF reporter z-score: 0.0346

For MAP2K6 #6, how do the results read?
TNF reporter z-score: -0.923

What is on record for MAP2K3 #1?
TNF reporter z-score: -0.373

For MAP2K3 #2, what was measured?
TNF reporter z-score: -0.672

What is on record for MAP2K3 #3?
TNF reporter z-score: -1.71 (active)

For MAP2K3 #4, what does the deposit list?
TNF reporter z-score: -2.08 (active)

With MAP2K3 #5, how do the results read?
TNF reporter z-score: -0.768

What is on record for MAP2K3 #6?
TNF reporter z-score: -3.8 (active)

How did the screen score PELI1 #1?
TNF reporter z-score: -0.16

With PELI1 #2, how do the results read?
TNF reporter z-score: -0.359

For PELI1 #3, what does the deposit list?
TNF reporter z-score: 1.76 (active)

What did the screen give for PELI1 #4?
TNF reporter z-score: -1.63 (active)

How did the screen score PELI1 #5?
TNF reporter z-score: -0.134

Which result is listed for PELI1 #6?
TNF reporter z-score: -0.312

For ATF2 #1, how do the results read?
TNF reporter z-score: -1.8 (active)

For ATF2 #2, what was measured?
TNF reporter z-score: 0.0901

For ATF2 #3, how do the results read?
TNF reporter z-score: -0.485

How did the screen score ATF2 #4?
TNF reporter z-score: 0.179

For ATF2 #5, what was measured?
TNF reporter z-score: -0.243

What is on record for ATF2 #6?
TNF reporter z-score: -2.17 (active)

What did the screen give for TRAF6 #1?
TNF reporter z-score: -4.87 (active)

For TRAF6 #2, what was measured?
TNF reporter z-score: -2.83 (active)

For TRAF6 #3, what does the deposit list?
TNF reporter z-score: -5.07 (active)

What is on record for TRAF6 #4?
TNF reporter z-score: -2.41 (active)

For TRAF6 #5, what was measured?
TNF reporter z-score: -2.67 (active)

With TRAF6 #6, what was measured?
TNF reporter z-score: -3.09 (active)
